In patent publication US11592453B2, “Personalized metabolomic profiling of specialized pro-resolving mediators” (THE BRIGHAM AND WOMEN'S HOSPITAL, INC., priority 2016, dated 2023):

Assay: LC-MS/MS LM metabololipidomics of human whole blood during coagulation
Settings: human whole blood, mean of 12 donors

CC/C=C\C[C@H](O)/C=C\C=C\C/C=C/C=C/C=C/C(O)[C@@H](O)CCC(=O)O (stereo in doubt) [RvD4, resolvin D4]
LM concentration, Coagulation t = 0 h, Avg: — ((—) denotes concentrations < 0.1 pg/ml) | LM concentration, Coagulation t = 0.25 h, Avg: — ((—) denotes concentrations < 0.1 pg/ml) | LM concentration, Coagulation t = 0.5 h, Avg: — ((—) denotes concentrations < 0.1 pg/ml) | LM concentration, Coagulation t = 1 h, Avg: — ((—) denotes concentrations < 0.1 pg/ml) | LM concentration, Coagulation t = 3 h, Avg: — ((—) denotes concentrations < 0.1 pg/ml) | LM concentration, Coagulation t = 6 h, Avg: — ((—) denotes concentrations < 0.1 pg/ml) | LM concentration, Coagulation t = 24 h, Avg: — ((—) denotes concentrations < 0.1 pg/ml)

CC/C=C\C/C=C\C/C=C\C/C=C\C/C=C\C=C\C(O)CCC(=O)O (stereo not shown) [4-HDHA]
LM concentration, Coagulation t = 0 h, Avg: 70.0 pg/mL | LM concentration, Coagulation t = 0.25 h, Avg: 59.7 pg/mL | LM concentration, Coagulation t = 0.5 h, Avg: 90.4 pg/mL | LM concentration, Coagulation t = 1 h, Avg: 73.9 pg/mL | LM concentration, Coagulation t = 3 h, Avg: 108.0 pg/mL | LM concentration, Coagulation t = 6 h, Avg: 97.7 pg/mL | LM concentration, Coagulation t = 24 h, Avg: 240.5 pg/mL

CC/C=C\C/C=C\C[C@H](O)/C=C/C=C\C/C=C\C=C\[C@@H](O)CCC(=O)O [4S,14S-diHDHA]
LM concentration, Coagulation t = 0 h, Avg: 44.1 pg/mL | LM concentration, Coagulation t = 0.25 h, Avg: 25.4 pg/mL | LM concentration, Coagulation t = 0.5 h, Avg: 15.2 pg/mL | LM concentration, Coagulation t = 1 h, Avg: 14.3 pg/mL | LM concentration, Coagulation t = 3 h, Avg: 32.9 pg/mL | LM concentration, Coagulation t = 6 h, Avg: 60.2 pg/mL | LM concentration, Coagulation t = 24 h, Avg: 111.6 pg/mL

CC/C=C\C/C=C\C/C=C\C/C=C\C=C\C(O)CCCC(=O)O (stereo not shown) [5-HEPE]
LM concentration, Coagulation t = 0 h, Avg: 20.7 pg/mL | LM concentration, Coagulation t = 0.25 h, Avg: 24.1 pg/mL | LM concentration, Coagulation t = 0.5 h, Avg: 19.3 pg/mL | LM concentration, Coagulation t = 1 h, Avg: 22.6 pg/mL | LM concentration, Coagulation t = 3 h, Avg: 48.5 pg/mL | LM concentration, Coagulation t = 6 h, Avg: 43.0 pg/mL | LM concentration, Coagulation t = 24 h, Avg: 75.0 pg/mL

CCCCC/C=C\C/C=C\C/C=C\C=C\[C@@H](O)CCCC(=O)O [5-HETE]
LM concentration, Coagulation t = 0 h, Avg: 487.6 pg/mL | LM concentration, Coagulation t = 0.25 h, Avg: 100.1 pg/mL | LM concentration, Coagulation t = 0.5 h, Avg: 103.2 pg/mL | LM concentration, Coagulation t = 1 h, Avg: 173.1 pg/mL | LM concentration, Coagulation t = 3 h, Avg: 258.5 pg/mL | LM concentration, Coagulation t = 6 h, Avg: 282.1 pg/mL | LM concentration, Coagulation t = 24 h, Avg: 436.6 pg/mL

CCCCC/C=C\C[C@H](O)/C=C/C=C\C=C\[C@@H](O)CCCC(=O)O [5S,12S-diHETE]
LM concentration, Coagulation t = 0 h, Avg: 4.2 pg/mL | LM concentration, Coagulation t = 0.25 h, Avg: 5.9 pg/mL | LM concentration, Coagulation t = 0.5 h, Avg: 5.0 pg/mL | LM concentration, Coagulation t = 1 h, Avg: 10.8 pg/mL | LM concentration, Coagulation t = 3 h, Avg: 29.2 pg/mL | LM concentration, Coagulation t = 6 h, Avg: 36.7 pg/mL | LM concentration, Coagulation t = 24 h, Avg: 39.5 pg/mL

CCCCC[C@H](O)/C=C/C=C\C/C=C\C=C\[C@@H](O)CCCC(=O)O [5S,15S-diHETE, 5S,15S-dihydroxy-eicosa-6E, 8Z, 11Z, 13E-tetraenoic acid]
LM concentration, Coagulation t = 0 h, Avg: 2.2 pg/mL | LM concentration, Coagulation t = 0.25 h, Avg: 2.4 pg/mL | LM concentration, Coagulation t = 0.5 h, Avg: 2.0 pg/mL | LM concentration, Coagulation t = 1 h, Avg: 3.6 pg/mL | LM concentration, Coagulation t = 3 h, Avg: 5.1 pg/mL | LM concentration, Coagulation t = 6 h, Avg: 9.7 pg/mL | LM concentration, Coagulation t = 24 h, Avg: 20.2 pg/mL

CC/C=C\C/C=C\C/C=C\C/C=C\C=C\C(O)C/C=C\CCC(=O)O (stereo not shown) [7-HDHA]
LM concentration, Coagulation t = 0 h, Avg: 11.5 pg/mL | LM concentration, Coagulation t = 0.25 h, Avg: 12.7 pg/mL | LM concentration, Coagulation t = 0.5 h, Avg: 13.2 pg/mL | LM concentration, Coagulation t = 1 h, Avg: 11.9 pg/mL | LM concentration, Coagulation t = 3 h, Avg: 13.7 pg/mL | LM concentration, Coagulation t = 6 h, Avg: 17.6 pg/mL | LM concentration, Coagulation t = 24 h, Avg: 28.8 pg/mL

CC/C=C\C/C=C\C[C@H](O)/C=C/C=C\C=C\[C@@H](O)C/C=C\CCC(=O)O [7S,14S-diHDHA]
LM concentration, Coagulation t = 0 h, Avg: 2.2 pg/mL | LM concentration, Coagulation t = 0.25 h, Avg: 2.6 pg/mL | LM concentration, Coagulation t = 0.5 h, Avg: 0.5 pg/mL | LM concentration, Coagulation t = 1 h, Avg: 1.1 pg/mL | LM concentration, Coagulation t = 3 h, Avg: 3.5 pg/mL | LM concentration, Coagulation t = 6 h, Avg: 3.7 pg/mL | LM concentration, Coagulation t = 24 h, Avg: 9.7 pg/mL

CC/C=C\C[C@H](O)/C=C/C=C\C=C\[C@@H](O)C/C=C\C/C=C\CCC(=O)O [10S,17S-diHDHA]
LM concentration, Coagulation t = 0 h, Avg: 1.3 pg/mL | LM concentration, Coagulation t = 0.25 h, Avg: 1.1 pg/mL | LM concentration, Coagulation t = 0.5 h, Avg: 0.8 pg/mL | LM concentration, Coagulation t = 1 h, Avg: 1.0 pg/mL | LM concentration, Coagulation t = 3 h, Avg: 2.4 pg/mL | LM concentration, Coagulation t = 6 h, Avg: 4.1 pg/mL | LM concentration, Coagulation t = 24 h, Avg: 7.9 pg/mL

CC/C=C\C/C=C\CC(O)/C=C/C=C\C/C=C\CCCC(=O)O (stereo not shown) [12-HEPE]
LM concentration, Coagulation t = 0 h, Avg: 4196.1 pg/mL | LM concentration, Coagulation t = 0.25 h, Avg: 4553.0 pg/mL | LM concentration, Coagulation t = 0.5 h, Avg: 4769.4 pg/mL | LM concentration, Coagulation t = 1 h, Avg: 4728.3 pg/mL | LM concentration, Coagulation t = 3 h, Avg: 16844.3 pg/mL | LM concentration, Coagulation t = 6 h, Avg: 21319.3 pg/mL | LM concentration, Coagulation t = 24 h, Avg: 26591.1 pg/mL

CCCCC/C=C\C[C@H](O)/C=C/C=C\C/C=C\CCCC(=O)O [12-HETE]
LM concentration, Coagulation t = 0 h, Avg: 2238.8 pg/mL | LM concentration, Coagulation t = 0.25 h, Avg: 3515.2 pg/mL | LM concentration, Coagulation t = 0.5 h, Avg: 4092.3 pg/mL | LM concentration, Coagulation t = 1 h, Avg: 6481.2 pg/mL | LM concentration, Coagulation t = 3 h, Avg: 14018.7 pg/mL | LM concentration, Coagulation t = 6 h, Avg: 15921.7 pg/mL | LM concentration, Coagulation t = 24 h, Avg: 16532.4 pg/mL

CC/C=C\C/C=C\CC(O)/C=C/C=C\C/C=C\C/C=C\CCC(=O)O (stereo not shown) [14-HDHA]
LM concentration, Coagulation t = 0 h, Avg: 893.1 pg/mL | LM concentration, Coagulation t = 0.25 h, Avg: 1185.7 pg/mL | LM concentration, Coagulation t = 0.5 h, Avg: 662.2 pg/mL | LM concentration, Coagulation t = 1 h, Avg: 588.1 pg/mL | LM concentration, Coagulation t = 3 h, Avg: 2294.6 pg/mL | LM concentration, Coagulation t = 6 h, Avg: 3295.5 pg/mL | LM concentration, Coagulation t = 24 h, Avg: 4038.9 pg/mL

CC/C=C\CC(O)/C=C/C=C\C/C=C\C/C=C\CCCC(=O)O (stereo not shown) [15-HEPE]
LM concentration, Coagulation t = 0 h, Avg: 134.8 pg/mL | LM concentration, Coagulation t = 0.25 h, Avg: 214.3 pg/mL | LM concentration, Coagulation t = 0.5 h, Avg: 167.8 pg/mL | LM concentration, Coagulation t = 1 h, Avg: 187.7 pg/mL | LM concentration, Coagulation t = 3 h, Avg: 620.7 pg/mL | LM concentration, Coagulation t = 6 h, Avg: 863.0 pg/mL | LM concentration, Coagulation t = 24 h, Avg: 1370.7 pg/mL

CCCCC[C@H](O)/C=C/C=C\C/C=C\C/C=C\CCCC(=O)O [15-HETE]
LM concentration, Coagulation t = 0 h, Avg: 258.2 pg/mL | LM concentration, Coagulation t = 0.25 h, Avg: 303.0 pg/mL | LM concentration, Coagulation t = 0.5 h, Avg: 416.2 pg/mL | LM concentration, Coagulation t = 1 h, Avg: 1035.6 pg/mL | LM concentration, Coagulation t = 3 h, Avg: 2220.3 pg/mL | LM concentration, Coagulation t = 6 h, Avg: 3099.5 pg/mL | LM concentration, Coagulation t = 24 h, Avg: 4015.6 pg/mL

CC/C=C\CC(O)/C=C/C=C\C/C=C\C/C=C\C/C=C\CCC(=O)O (stereo not shown) [17-HDHA]
LM concentration, Coagulation t = 0 h, Avg: 61.2 pg/mL | LM concentration, Coagulation t = 0.25 h, Avg: 84.5 pg/mL | LM concentration, Coagulation t = 0.5 h, Avg: 59.6 pg/mL | LM concentration, Coagulation t = 1 h, Avg: 65.2 pg/mL | LM concentration, Coagulation t = 3 h, Avg: 152.7 pg/mL | LM concentration, Coagulation t = 6 h, Avg: 230.8 pg/mL | LM concentration, Coagulation t = 24 h, Avg: 439.7 pg/mL
